3 molecules from patent US20110256062A1 can be followed below.

Chains of the proteins cited; added tags and fusions are not shown. Lines headed by an entry give the natural chain unless they say otherwise; changes in a name come on top.
UniProt Q5S007: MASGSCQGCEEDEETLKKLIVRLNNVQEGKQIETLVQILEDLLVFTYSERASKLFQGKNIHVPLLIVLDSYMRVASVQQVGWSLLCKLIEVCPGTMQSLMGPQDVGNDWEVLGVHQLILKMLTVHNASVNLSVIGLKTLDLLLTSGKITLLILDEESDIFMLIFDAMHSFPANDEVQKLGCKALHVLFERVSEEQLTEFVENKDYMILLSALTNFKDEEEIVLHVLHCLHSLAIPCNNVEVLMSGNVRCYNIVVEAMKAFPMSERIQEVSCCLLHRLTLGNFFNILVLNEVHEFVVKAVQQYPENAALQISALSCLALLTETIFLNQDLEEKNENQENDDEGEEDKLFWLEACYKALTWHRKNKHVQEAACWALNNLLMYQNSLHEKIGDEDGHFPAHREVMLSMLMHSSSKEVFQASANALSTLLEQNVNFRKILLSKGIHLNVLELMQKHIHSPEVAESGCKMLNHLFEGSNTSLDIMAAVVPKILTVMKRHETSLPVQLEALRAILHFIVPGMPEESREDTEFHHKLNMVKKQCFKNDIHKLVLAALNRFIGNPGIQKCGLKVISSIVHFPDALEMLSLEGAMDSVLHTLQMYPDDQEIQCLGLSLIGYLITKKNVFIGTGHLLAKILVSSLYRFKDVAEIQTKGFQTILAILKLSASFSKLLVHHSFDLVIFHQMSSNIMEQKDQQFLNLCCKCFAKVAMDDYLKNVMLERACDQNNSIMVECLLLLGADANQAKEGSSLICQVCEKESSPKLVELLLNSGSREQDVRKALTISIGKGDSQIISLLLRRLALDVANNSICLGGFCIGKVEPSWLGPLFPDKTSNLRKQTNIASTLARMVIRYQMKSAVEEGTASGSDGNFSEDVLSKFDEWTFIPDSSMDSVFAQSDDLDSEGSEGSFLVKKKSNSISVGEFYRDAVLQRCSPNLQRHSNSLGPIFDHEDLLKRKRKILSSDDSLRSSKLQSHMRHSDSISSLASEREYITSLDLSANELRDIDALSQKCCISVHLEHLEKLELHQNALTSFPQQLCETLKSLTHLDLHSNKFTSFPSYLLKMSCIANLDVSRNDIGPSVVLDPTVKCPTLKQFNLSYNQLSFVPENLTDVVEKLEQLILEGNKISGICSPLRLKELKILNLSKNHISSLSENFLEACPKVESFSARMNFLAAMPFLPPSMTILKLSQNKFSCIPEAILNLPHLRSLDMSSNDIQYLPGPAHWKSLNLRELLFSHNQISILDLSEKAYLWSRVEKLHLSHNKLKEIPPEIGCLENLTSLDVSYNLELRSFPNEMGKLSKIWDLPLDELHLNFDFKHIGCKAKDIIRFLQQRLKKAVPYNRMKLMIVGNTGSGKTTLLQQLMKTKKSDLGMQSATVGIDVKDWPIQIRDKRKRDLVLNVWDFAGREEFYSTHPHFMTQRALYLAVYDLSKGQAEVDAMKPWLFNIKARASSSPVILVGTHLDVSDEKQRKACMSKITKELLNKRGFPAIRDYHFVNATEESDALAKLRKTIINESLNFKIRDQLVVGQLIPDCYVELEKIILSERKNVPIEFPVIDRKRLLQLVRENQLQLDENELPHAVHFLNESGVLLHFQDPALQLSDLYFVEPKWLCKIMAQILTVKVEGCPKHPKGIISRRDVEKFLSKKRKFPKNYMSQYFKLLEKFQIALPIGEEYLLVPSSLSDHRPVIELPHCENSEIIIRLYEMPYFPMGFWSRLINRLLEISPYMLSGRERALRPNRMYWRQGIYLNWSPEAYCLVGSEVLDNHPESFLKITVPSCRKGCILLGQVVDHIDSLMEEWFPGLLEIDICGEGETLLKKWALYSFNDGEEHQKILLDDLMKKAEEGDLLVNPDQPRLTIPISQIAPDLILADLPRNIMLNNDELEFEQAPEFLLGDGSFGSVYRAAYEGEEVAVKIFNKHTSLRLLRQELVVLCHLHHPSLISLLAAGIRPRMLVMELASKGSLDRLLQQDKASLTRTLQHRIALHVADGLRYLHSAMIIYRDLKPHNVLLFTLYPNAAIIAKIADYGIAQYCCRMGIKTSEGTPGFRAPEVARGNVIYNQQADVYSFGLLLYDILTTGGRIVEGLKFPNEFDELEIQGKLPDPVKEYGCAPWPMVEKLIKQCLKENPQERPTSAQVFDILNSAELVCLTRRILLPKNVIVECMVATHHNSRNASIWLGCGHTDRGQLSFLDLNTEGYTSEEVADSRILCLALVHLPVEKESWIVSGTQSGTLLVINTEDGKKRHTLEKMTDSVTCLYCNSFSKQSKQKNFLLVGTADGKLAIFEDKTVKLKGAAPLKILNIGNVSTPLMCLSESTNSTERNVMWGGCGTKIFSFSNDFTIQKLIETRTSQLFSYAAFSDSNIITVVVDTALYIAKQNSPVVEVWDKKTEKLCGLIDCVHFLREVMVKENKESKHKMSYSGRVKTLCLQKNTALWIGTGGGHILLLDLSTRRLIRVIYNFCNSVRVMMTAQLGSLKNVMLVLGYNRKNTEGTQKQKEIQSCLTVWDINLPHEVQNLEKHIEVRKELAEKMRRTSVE

The target of test [1] is wild type full-length GFP-LRRK2 (human) (UniProt Q5S007). Nature of the test: SILAC mass spectrometry of GFP-binder immunoprecipitates from HEK-293 lysates, against GFP alone.
In test [2] the target is full-length GFP-LRRK2[G2019S] mutant (human) (UniProt Q5S007). The description is as above.

No constants are given. Whether binding was seen depends on the method and setting. In cells and extracts the contact can be indirect. These calls come from enrichment with a bait or labelling near it, and not all partners need be listed.

B1: 14-3-3 theta (endogenous, HEK-293 cells) (protein)
chain: MEKTELIQKAKLAEQAERYDDMATCMKAVTEQGAELSNEERNLLSVAYKNVVGGRRSAWRVISSIEQKTDTSDKKLQLIKDYREKVESELRSICTTVLELLDKYLIANATNPESKVFYLKMKGDYFRYLAEVACGDDRKQTIDNSQGAYQEAFDISKKEMQPTHPIRLGLALNFSVFYYEILNNPELACTLAKTAFDEAIAELDTLNEDSYKDSTLIMQLLRDNLTLWTSDSAGEECDAAEGAEN
As for B1, the binding entry in test [1] and in test [2] was “binds” throughout.

B2: 14-3-3 gamma (endogenous, HEK-293 cells) (protein)
chain: MVDREQLVQKARLAEQAERYDDMAAAMKNVTELNEPLSNEERNLLSVAYKNVVGARRSSWRVISSIEQKTSADGNEKKIEMVRAYREKIEKELEAVCQDVLSLLDNYLIKNCSETQYESKVFYLKMKGDYYRYLAEVATGEKRATVVESSEKAYSEAHEISKEHMQPTHPIRLGLALNYSVFYYEIQNAPEQACHLAKTAFDDAIAELDTLNEDSYKDSTLIMQLLRDNLTLWTSDQQDDDGGEGNN
In the case of B2, in test [2], the binding entry was “binds”.

B3: 14-3-3 eta (endogenous, HEK-293 cells) (protein)
chain: GDREQLLQRARLAEQAERYDDMASAMKAVTELNEPLSNEDRNLLSVAYKNVVGARRSSWRVISSIEQKTMADGNEKKLEKVKAYREKIEKELETVCNDVLSLLDKFLIKNCNDFQYESKVFYLKMKGDYYRYLAEVASGEKKNSVVEASEAAYKEAFEISKEQMQPTHPIRLGLALNFSVFYYEIQNAPEQACLLAKQAFDDAIAELDTLNEDSYKDSTLIMQLLRDNLTLWTSDQQDEEAGEGN
With B3, the binding result in test [1] is recorded as “binds”.
